Measurements reported in PubChem BioAssay AID1347076 (National Center for Advancing Translational Sciences (NCATS), 2019).
Hit rate of the full screen: of about 400,000 compounds, about 13,000 (3.2%) were called active. This list was built around the results that the source calls inconclusive (neither active nor inactive); the mix of calls is not that of the screen. The call rests on the fitted dose curve; in most records, active means well fitted cell-killing curve with a large enough effect; inconclusive means small, poorly fitted or top-dose-only effect, or effect the other way; inactive means flat fitted curve, though single readings scatter. Where the call is inconclusive, the potency comes from a doubtful curve fit.

Assay: qHTS assay for MDR1-selective chemotherapeutics: Primary screen using the drug-selected MDR subline cells KB-V1; further: nearly all actives have a fitted effect of over 60% in size
Settings: KB-V1 MDR cells viability, CellTiter-Glo, 72 h; activity change, negative = cytotoxicity: at 46.1 µM (top of the series)
Method in brief: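 Cells of the MDR subline KB-V1 are plated, dosed with compound at multiple concentrations, and incubated 72 h at 37 degrees C; CellTiter-Glo is then added and luminescence read after 10 min.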
On the % scale 0 is the no-effect control and ±100 the full control effect; potency means the concentration at half of the fitted maximal effect.

Row | SMILES | Potency | activity change, negative = cytotoxicity
1 | COc1ccc(-c2nn(-c3ccccc3)cc2C2CC(c3cccs3)=NN2C(=O)CCC(=O)O)cc1 (stereo not drawn) | inconclusive: 29.1 µM [rising, single point] | –
2 | Cc1cc(N/N=C/c2ccc(Cl)cc2Cl)nc(NCc2ccccc2)n1 | active: 8.2 µM | –
3 | CN(C)CCN1C(=O)c2cccc3cc([N+](=O)[O-])cc(c23)C1=O | active: 2.59 µM | –
4 | Cc1ccc(OCCC(=O)N(CCC(C)C)c2c(N)n(Cc3ccccc3)c(=O)[nH]c2=O)cc1 | – | inactive: -17.8%
5 | C/C(=N\NC(=O)c1cc2ccccc2cc1O)c1ccc2c(c1)OCO2 | inconclusive: 16.4 µM [cytotoxic, partial curve, poor fit] | –
6 | COc1ccc2c(c1)Cc1c-2cc(Br)c(N)c1Br | – | inactive: 0%
7 | Cc1ccc(/C(N)=N/OC(=O)c2cccc(Cn3cc(C(F)(F)F)ccc3=O)c2)cc1 | inconclusive: 20.6 µM [cytotoxic, single point] | –
8 | Cc1occc1C(=O)N1CCCC(N2CCN(c3cccc(C(F)(F)F)c3)CC2)C1 (stereo not drawn) | inconclusive: 20.6 µM [cytotoxic, partial curve, poor fit] | –
9 | CCN(Cc1ccccc1)C(=O)CCc1nc(-c2ccc(C)cc2)no1 | inconclusive: 18.4 µM [cytotoxic, partial curve] | –
10 | CC1CCCC(C)N1CCNC(=O)CCc1nnc2n(Cc3ccccc3)c(=O)c3ccccc3n12 (stereo not drawn) | inconclusive: 29.1 µM [rising, single point] | –
11 | Cc1c2ccccc2nc2c(F)c(NCCO)c(F)c(F)c12 | inconclusive: 18.4 µM [cytotoxic, single point] | –
12 | Cc1ccc(-n2nc(C)c(NC(=O)COC(=O)c3ccccc3NCCO)c2C)cc1 | inconclusive: 18.4 µM [cytotoxic, partial curve, poor fit] | –
13 | Cc1cccc(NC(=O)CCC2CCN(C(=O)C3CC=CCC3)CC2)c1 (stereo not drawn) | inconclusive: 16.4 µM [cytotoxic, partial curve] | –
14 | CCN(CC)S(=O)(=O)c1cccc(C(=O)N[C@H](C(=O)Nc2nc3ccc(F)cc3s2)C(C)C)c1 | active: 5.8 µM | –
15 | O=C(CSc1nc2ccccc2[nH]1)N1CCCCC1 | inconclusive: 18.4 µM [cytotoxic, single point] | –
16 | Cc1cc(C)c(C)c(S(=O)(=O)N2CCN(C(=O)C3CSC4(C)CCC(=O)N34)CC2)c1C (stereo not drawn) | inconclusive: 4.11 µM [cytotoxic, partial curve] | –
17 | COCC(=O)N1CCC(c2nc3ccccc3[nH]2)CC1 | inconclusive: 18.4 µM [rising, single point] | –
18 | COCCNc1nc2ccccc2n1CC(=O)c1ccc(OC)c(OC)c1 | inconclusive: 29.1 µM [rising, single point] | –
19 | COc1ccccc1N1C(=O)N(C(C)=O)C2C1Nc1ccccc1N2C (stereo not drawn) | – | inactive: 4.9%
20 | CCOC(=O)C1=CCN(S(=O)(=O)c2ccccc2Cl)C1c1cccc(C)c1 (stereo not drawn) | inconclusive: 25.9 µM [cytotoxic, single point] | –
21 | Cc1cc(NC(=O)COC(=O)c2ccccc2S(=O)(=O)N(C)c2ccccc2)no1 | inconclusive: 3.26 µM [cytotoxic, full curve] | –
22 | CCn1cc(C(=O)N[C@@H](CCSC)C(=O)NCCCn2ccnc2)c(=O)c2cc3c(cc21)OCO3 | inconclusive: 29.1 µM [rising, single point] | –
23 | CCOP(=O)(OCC)C(NC(C)=O)C(=O)c1ccccc1 (stereo not drawn) | inconclusive: 29.1 µM [cytotoxic, single point] | –

Retrieved one by one from the entries so far:
Row | SMILES | Potency | activity change, negative = cytotoxicity
18 | COCCNc1nc2ccccc2n1CC(=O)c1ccc(OC)c(OC)c1 | inconclusive: 29.1 µM [rising, single point] | –
22 | CCn1cc(C(=O)N[C@@H](CCSC)C(=O)NCCCn2ccnc2)c(=O)c2cc3c(cc21)OCO3 | inconclusive: 29.1 µM [rising, single point] | –
3 | CN(C)CCN1C(=O)c2cccc3cc([N+](=O)[O-])cc(c23)C1=O | active: 2.59 µM | –
12 | Cc1ccc(-n2nc(C)c(NC(=O)COC(=O)c3ccccc3NCCO)c2C)cc1 | inconclusive: 18.4 µM [cytotoxic, partial curve, poor fit] | –
5 | C/C(=N\NC(=O)c1cc2ccccc2cc1O)c1ccc2c(c1)OCO2 | inconclusive: 16.4 µM [cytotoxic, partial curve, poor fit] | –

Following part.

Row | SMILES | Potency | activity change, negative = cytotoxicity
24 | Cc1nc(Nc2ccccc2)c2oc3ccc(Cl)cc3c2n1 | – | inactive: -13.9%
25 | CCN(CC)C(=O)c1csc(Nc2ccc(C)cc2)n1 | active: 14.6 µM | –
26 | Cc1ccc(OCC(=O)Oc2ccc(C)c(C)c2)cc1 | inconclusive: 13 µM [rising, partial curve, poor fit] | –
27 | CC(=O)Nc1ccc(NS(=O)(=O)c2cc(C)sc2C)cc1 | inconclusive: 0.0366 µM [rising, full curve] | –
28 | COc1cc(CC(=O)N2CCN(C(=O)C3CCCO3)CC2)cc(OC)c1OC (stereo not drawn) | – | inactive: 18%
29 | Cc1cccc(/C=N/NC(=O)CC(=O)NCCc2ccccc2)c1 | – | inactive: -16.3%
30 | COc1cccc(/C=N/Nc2ccc(C(=O)O)cc2)c1O | inconclusive: 29.1 µM [cytotoxic, single point] | –
31 | CC(=O)N1CCc2cc(S(=O)(=O)CCC(=O)N3CCc4ccccc4C3)ccc21 | – | inactive: -10.7%
32 | COc1ccccc1CNC(=O)Cn1cc2c(n1)CCCC2 | inconclusive: 3.66 µM [rising, partial curve, poor fit] | –
33 | CCCCc1nn2c(=O)cc(COC(=O)c3ccc(NC(=O)CCc4ccccc4)cc3)nc2s1 | – | inactive: 28%
34 | CC(=O)Nc1ccc(S(=O)(=O)CC(=O)CS(=O)(=O)c2ccc(NC(C)=O)cc2)cc1 | – | inactive: 6.16%
35 | O/N=C/c1cc(Br)cc(Br)c1OCc1ccccc1 | inconclusive: 29.1 µM [cytotoxic, single point] | –
36 | CCOCCCN1C(=O)c2[nH]nc(-c3ccccc3O)c2C1c1ccc(CC)cc1 (stereo not drawn) | inconclusive: 23.1 µM [cytotoxic, single point] | –
37 | CCOC(=O)N1CCN(C(=O)c2ccc3c(=O)n(CCc4ccccc4)c(=S)[nH]c3c2)CC1 | inconclusive: 0.58 µM [cytotoxic, full curve, poor fit] | –
38 | COc1cc(CNC(C)c2ccccc2)cc(Br)c1OCc1ccc(F)cc1 (stereo not drawn) | inconclusive: 20.6 µM [cytotoxic, partial curve, poor fit] | –
39 | COc1ccc(C(OC(=O)c2c(C)noc2C)C(=O)NC2CCCC2)cc1 (stereo not drawn) | active: 5.17 µM | –
40 | O=C(CCc1nc2ccccc2c(=O)[nH]1)Nc1ccccc1N1CCCCC1 | – | inactive: -1.31%
41 | Cc1nn(C)c(C(=O)NC2C3CC4CC(C3)CC2C4)c1Cl (stereo not drawn) | – | inactive: -0.964%
42 | CS(=O)(=O)N(Cc1ccc(Cl)cc1)c1ccc(C(=O)NCc2ccccn2)cc1 | – | inactive: -8.26%
43 | O=C(CNC(=S)N(Cc1ccccc1)Cc1cccs1)NCc1ccc(F)cc1 | inconclusive: 10.3 µM [cytotoxic, partial curve] | –
44 | Cc1ccc(-c2noc(CN(C(=O)CCN3C(=O)c4ccccc4C3=O)C(C)C)n2)cc1 | inconclusive: 4.61 µM [cytotoxic, partial curve] | –
45 | CCCC(C)NC(=O)COc1ccc(Sc2ccc(OCC(=O)NC(C)CCC)cc2)cc1 (stereo not drawn) | inconclusive: 25.9 µM [cytotoxic, partial curve, poor fit] | –
46 | O=C(N/N=C/c1cc2c3c(c1O)CCCN3CCC2)c1ccccc1O | inconclusive: 1.16 µM [cytotoxic, full curve] | –

Row | SMILES | Potency | activity change, negative = cytotoxicity
47 | CC(CCc1ccccc1)NC(=O)COC(=O)c1ccc(S(C)(=O)=O)c([N+](=O)[O-])c1 (stereo not drawn) | – | inactive: -16.1%
48 | COc1ccc(CN(C(=O)c2nsc(Cl)c2Cl)C(C(=O)NC2CCCCC2)c2ccc(OC)cc2)cc1 (stereo not drawn) | active: 20.6 µM | –
49 | CN(Cc1cn(Cc2cccc(C(F)(F)F)c2)nn1)C1CN(Cc2cn(Cc3cccc(C(F)(F)F)c3)nn2)S(=O)(=O)C1 (stereo not drawn) | inconclusive: 18.4 µM [cytotoxic, single point] | –
50 | CCCOC1CCCN(C(=O)c2cc(COc3c(F)cccc3F)on2)C1 (stereo not drawn) | inconclusive: 29.1 µM [cytotoxic, single point] | –
51 | COc1cccc(-c2cn3nc(C)c(C)nc3n2)c1 | inconclusive: 29.1 µM [cytotoxic, single point] | –
52 | CC(C)(C)c1ccc(/C=C/C(=O)Nc2ncccn2)cc1 | inconclusive: 18.4 µM [cytotoxic, partial curve, poor fit] | –
53 | Cc1noc(C)c1CSc1nnc(-c2cccnc2)n1C1CCCCC1C (stereo not drawn) | active: 23.1 µM | –
54 | COc1cccc(-c2cc(C(=O)Nc3cccc(O)c3)no2)c1 | inconclusive: 29.1 µM [cytotoxic, single point] | –
55 | COc1cc(SC)ccc1C(=O)Nc1ccc2c(c1)CCC2 | inconclusive: 29.1 µM [cytotoxic, single point] | –
56 | O=C1CC(c2ccccc2)c2c(n3ncnc3[nH]c2=O)N1 (stereo not drawn) | inconclusive: 16.4 µM [rising, single point] | –
57 | CCOCCCNC(=S)NCCNc1nc2ccc(C)cc2cc1C#N | inconclusive: 14.6 µM [cytotoxic, partial curve, poor fit] | –
58 | O=C(c1ccco1)N1CCN(c2ncnc3c2nnn3Cc2ccccc2Cl)CC1 | active: 5.8 µM | –
59 | Cc1noc(/C=C/c2nn(C)cc2Cl)c1[N+](=O)[O-] | inconclusive: 29.1 µM [cytotoxic, single point] | –
60 | CN(C)c1nc(NCc2ccccc2)nc(N/N=C/c2ccc3c(c2)OCO3)n1 | inconclusive: 5.8 µM [cytotoxic, single point] | –
61 | O=C(c1ccco1)N1CCN(C(=O)c2ccco2)C1=S | active: 16.4 µM | –
62 | O=C(NC(Cc1ccccc1)C(=O)N1CCN(S(=O)(=O)c2ccccc2)CC1)c1ccccc1 (stereo not drawn) | – | inconclusive: -13.8%
63 | O=C(CN1CCCCCC1)Nc1cccc(Br)c1 | inconclusive: 25.9 µM [cytotoxic, single point] | –
64 | Cc1cc[n+](C(C)C(=O)c2ccc(-c3ccccc3)cc2)cc1 (stereo not drawn) | – | inactive: 1.18%
65 | CCOC(=O)[C@@H]1[C@H]2COc3ccc(Br)cc3[C@H]2N2C(=O)N(c3ccc(Cl)cc3)C(=O)[C@]12C | – | inactive: 14.5%
66 | Cc1ccc(S(=O)(=O)c2nc(-c3ccccc3)oc2SCC(=O)NCC2CCCO2)cc1 (stereo not drawn) | inconclusive: 2.06 µM [cytotoxic, partial curve, poor fit] | –
67 | CC(=O)c1ccc(NC(=O)CCCN2C(=O)COc3ccc(C)cc32)cc1 | – | inactive: 0.598%
68 | O=C(CCC(=O)c1cccs1)NNC(=O)c1ccccc1O | inconclusive: 18.4 µM [cytotoxic, partial curve, poor fit] | –
